{
  "source": "the supplement of paper PMC8728848",
  "binders": {"B1": {"name": "Wzz (Escherichia coli) (protein)", "chain": "MRTWKFPSVRVMMRVENNNVSGQNHDPEQIDLIDLLVQLWRGKMTIIISVIVAIVLAIGYLAVAKEKWTSTAIITQPDVGQIAGYNNAMNVIYGQAAPKVSDLQETLIGRFSSAFSALAETLDNQEEPEKLTIEPSVKNQQLPLTVSYVGQTAEGAQMKLAQYIQQVDDKVNQELEKDLKDNIALGRKNLQDSLRTQEVVAQEQKDLRIRQIQEALQYANQAQVTKPQIQQTGEDITQDTLFLLGSEALESMIKHEATRPLVFSSNYYQTRQNLLDIDNLDVDKLDIHAYLYVMKPTLPIRRDSPKKAITLILAVLLGGMVGAGIVLGRNALRNYNAK"}},
  "assay_in_all_cases": "glycan array binding signal (z-score within array); higher = stronger binding",
  "conditions_in_all_cases": "glycan notation: IUPAC condensed, linker removed",
  "key": {"[1]": {"molecular_target": "Neu5Ac(a2-3)Gal(b1-3)GlcNAc6S", "method_in_brief": "(§1)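 From the Consortium for Functional Glycomics database, 3228 arrays were curated, keeping only those whose protein sequence was available. Binding is given as a within-array Z-score averaged across arrays sharing a protein sequence and across linkers. Negative Z-scores can be read as non-binding.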"}, "[2]": {"molecular_target": "Neu5Ac(a2-3)Gal(b1-3)[Fuc(a1-4)]GlcNAc", "method_in_brief": "as §1"}, "[3]": {"molecular_target": "Neu5Ac(a2-3)Gal(b1-3)[Fuc(a1-4)]GlcNAc(b1-3)Gal(b1-3)[Fuc(a1-4)]GlcNAc", "method_in_brief": "as §1"}, "[4]": {"molecular_target": "Neu5Ac(a2-3)Gal(b1-3)[Fuc(a1-4)]GlcNAc(b1-3)Gal(b1-4)[Fuc(a1-3)]GlcNAc", "method_in_brief": "as §1"}, "[5]": {"molecular_target": "Neu5Ac(a2-3)Gal(b1-3)[GlcNAc(b1-6)]GalNAc", "method_in_brief": "as §1"}, "[6]": {"molecular_target": "Neu5Ac(a2-3)Gal(b1-3)[Neu5Ac(a2-6)]GalNAc", "method_in_brief": "as §1"}, "[7]": {"molecular_target": "Neu5Ac(a2-3)Gal(b1-3)[Neu5Ac(a2-6)]GlcNAc(b1-3)[Fuc(a1-3)[Gal(b1-4)]GlcNAc(b1-6)]Gal(b1-4)Glc", "method_in_brief": "as §1"}, "[8]": {"molecular_target": "Neu5Ac(a2-3)Gal(b1-3)]Neu5Ac(a2-3)Gal(b1-4)]GlcNAc", "method_in_brief": "as §1"}, "[9]": {"molecular_target": "Neu5Ac(a2-3)Gal(b1-4)Glc", "method_in_brief": "as §1"}, "[10]": {"molecular_target": "Neu5Ac(a2-3)Gal(b1-4)GlcNAc", "method_in_brief": "as §1"}, "[11]": {"molecular_target": "Neu5Ac(a2-3)Gal(b1-4)GlcNAc(b1-2)Man", "method_in_brief": "as §1"}, "[12]": {"molecular_target": "Neu5Ac(a2-3)Gal(b1-4)GlcNAc(b1-2)Man(a1-3)[GlcNAc(b1-4)][Neu5Ac(a2-3)Gal(b1-4)GlcNAc(b1-2)Man(a1-6)]Man(b1-4)GlcNAc(b1-4)GlcNAc", "method_in_brief": "as §1"}, "[13]": {"molecular_target": "Neu5Ac(a2-3)Gal(b1-4)GlcNAc(b1-2)Man(a1-3)[Neu5Ac(a2-3)Gal(b1-4)GlcNAc(b1-2)Man(a1-6)]Man(b1-4)GlcNAc(b1-4)GlcNAc", "method_in_brief": "as §1"}, "[14]": {"molecular_target": "Neu5Ac(a2-3)Gal(b1-4)GlcNAc(b1-2)Man(a1-3)[Neu5Ac(a2-3)Gal(b1-4)GlcNAc(b1-2)Man(a1-6)]Man(b1-4)GlcNAc(b1-4)[Fuc(a1-6)]GlcNAc", "method_in_brief": "as §1"}, "[15]": {"molecular_target": "Neu5Ac(a2-3)Gal(b1-4)GlcNAc(b1-2)Man(a1-3)[Neu5Ac(a2-6)Gal(b1-4)GlcNAc(b1-2)Man(a1-6)]Man(b1-4)GlcNAc(b1-4)GlcNAc", "method_in_brief": "as §1"}, "[16]": {"molecular_target": "Neu5Ac(a2-3)Gal(b1-4)GlcNAc(b1-2)[Neu5Ac(a2-3)Gal(b1-4)GlcNAc(b1-4)]Man(a1-3)[GlcNAc(b1-4)][Neu5Ac(a2-3)Gal(b1-4)GlcNAc(b1-2)[Neu5Ac(a2-3)Gal(b1-4)GlcNAc(b1-6)]Man(a1-6)]Man(b1-4)GlcNAc(b1-4)GlcNAc", "method_in_brief": "as §1"}, "[17]": {"molecular_target": "Neu5Ac(a2-3)Gal(b1-4)GlcNAc(b1-2)[Neu5Ac(a2-3)Gal(b1-4)GlcNAc(b1-4)]Man(a1-3)[GlcNAc(b1-4)][Neu5Ac(a2-3)Gal(b1-4)GlcNAc(b1-4)Man(a1-6)]Man(b1-4)GlcNAc(b1-4)GlcNAc", "method_in_brief": "as §1"}, "[18]": {"molecular_target": "Neu5Ac(a2-3)Gal(b1-4)GlcNAc(b1-2)[Neu5Ac(a2-3)Gal(b1-4)GlcNAc(b1-6)]Man(a1-6)[Neu5Ac(a2-3)Gal(b1-4)GlcNAc(b1-2)Man(a1-3)][GlcNAc(b1-4)]Man(b1-4)GlcNAc(b1-4)GlcNAc", "method_in_brief": "as §1"}, "[19]": {"molecular_target": "Neu5Ac(a2-3)Gal(b1-4)GlcNAc(b1-3)Gal", "method_in_brief": "as §1"}, "[20]": {"molecular_target": "Neu5Ac(a2-3)Gal(b1-4)GlcNAc(b1-3)Gal(b1-3)GlcNAc", "method_in_brief": "as §1"}, "[21]": {"molecular_target": "Neu5Ac(a2-3)Gal(b1-4)GlcNAc(b1-3)Gal(b1-4)GlcNAc", "method_in_brief": "as §1"}, "[22]": {"molecular_target": "Neu5Ac(a2-3)Gal(b1-4)GlcNAc(b1-3)Gal(b1-4)GlcNAc(b1-2)Man(a1-3)[Neu5Ac(a2-3)Gal(b1-4)GlcNAc(b1-3)Gal(b1-4)GlcNAc(b1-2)Man(a1-6)]Man(b1-4)GlcNAc(b1-4)GlcNAc", "method_in_brief": "as §1"}, "[23]": {"molecular_target": "Neu5Ac(a2-3)Gal(b1-4)GlcNAc(b1-3)Gal(b1-4)GlcNAc(b1-3)Gal(b1-4)GlcNAc", "method_in_brief": "as §1"}, "[24]": {"molecular_target": "Neu5Ac(a2-3)Gal(b1-4)GlcNAc(b1-3)Gal(b1-4)GlcNAc(b1-3)Gal(b1-4)GlcNAc(b1-2)Man(a1-3)[Neu5Ac(a2-3)Gal(b1-4)GlcNAc(b1-3)Gal(b1-4)GlcNAc(b1-3)Gal(b1-4)GlcNAc(b1-2)Man(a1-6)]GalNAc", "method_in_brief": "as §1"}, "[25]": {"molecular_target": "Neu5Ac(a2-3)Gal(b1-4)GlcNAc(b1-3)Gal(b1-4)GlcNAc(b1-3)GalNAc", "method_in_brief": "as §1"}, "[26]": {"molecular_target": "Neu5Ac(a2-3)Gal(b1-4)GlcNAc(b1-3)Gal(b1-4)GlcNAc(b1-3)[Neu5Ac(a2-3)Gal(b1-4)GlcNAc(b1-3)Gal(b1-4)GlcNAc(b1-6)]GalNAc", "method_in_brief": "as §1"}, "[27]": {"molecular_target": "Neu5Ac(a2-3)Gal(b1-4)GlcNAc(b1-3)Gal(b1-4)GlcNAc(b1-6)[Gal(b1-3)]GalNAc", "method_in_brief": "as §1"}, "[28]": {"molecular_target": "Neu5Ac(a2-3)Gal(b1-4)GlcNAc(b1-3)Gal(b1-4)[Fuc(a1-3)]GlcNAc", "method_in_brief": "as §1"}, "[29]": {"molecular_target": "Neu5Ac(a2-3)Gal(b1-4)GlcNAc(b1-3)GalNAc", "method_in_brief": "as §1"}, "[30]": {"molecular_target": "Neu5Ac(a2-3)Gal(b1-4)GlcNAc(b1-3)[Neu5Ac(a2-3)Gal(b1-4)GlcNAc(b1-6)]GalNAc", "method_in_brief": "as §1"}},
  "note": "This is one part of the list.",
  "data": [
    {"binder": "B1", "values": [
      {"measurement": "glycan array binding signal (z-score)", "setting": "[1]", "value": 0.382},
      {"measurement": "glycan array binding signal (z-score)", "setting": "[2]", "value": -0.593},
      {"measurement": "glycan array binding signal (z-score)", "setting": "[3]", "value": -0.191},
      {"measurement": "glycan array binding signal (z-score)", "setting": "[4]", "value": -0.223},
      {"measurement": "glycan array binding signal (z-score)", "setting": "[5]", "value": 0.002},
      {"measurement": "glycan array binding signal (z-score)", "setting": "[6]", "value": -0.631},
      {"measurement": "glycan array binding signal (z-score)", "setting": "[7]", "value": -0.071},
      {"measurement": "glycan array binding signal (z-score)", "setting": "[8]", "value": -0.4},
      {"measurement": "glycan array binding signal (z-score)", "setting": "[9]", "value": 1.19},
      {"measurement": "glycan array binding signal (z-score)", "setting": "[10]", "value": -0.161},
      {"measurement": "glycan array binding signal (z-score)", "setting": "[11]", "value": 2.37},
      {"measurement": "glycan array binding signal (z-score)", "setting": "[12]", "value": 0.462},
      {"measurement": "glycan array binding signal (z-score)", "setting": "[13]", "value": -0.278},
      {"measurement": "glycan array binding signal (z-score)", "setting": "[14]", "value": -0.597},
      {"measurement": "glycan array binding signal (z-score)", "setting": "[15]", "value": 0.428},
      {"measurement": "glycan array binding signal (z-score)", "setting": "[16]", "value": -0.466},
      {"measurement": "glycan array binding signal (z-score)", "setting": "[17]", "value": -0.336},
      {"measurement": "glycan array binding signal (z-score)", "setting": "[18]", "value": 0.255},
      {"measurement": "glycan array binding signal (z-score)", "setting": "[19]", "value": 0.592},
      {"measurement": "glycan array binding signal (z-score)", "setting": "[20]", "value": 0.863},
      {"measurement": "glycan array binding signal (z-score)", "setting": "[21]", "value": -0.104},
      {"measurement": "glycan array binding signal (z-score)", "setting": "[22]", "value": -0.195},
      {"measurement": "glycan array binding signal (z-score)", "setting": "[23]", "value": -0.157},
      {"measurement": "glycan array binding signal (z-score)", "setting": "[24]", "value": 0.235},
      {"measurement": "glycan array binding signal (z-score)", "setting": "[25]", "value": 0.258},
      {"measurement": "glycan array binding signal (z-score)", "setting": "[26]", "value": -0.456},
      {"measurement": "glycan array binding signal (z-score)", "setting": "[27]", "value": -0.143},
      {"measurement": "glycan array binding signal (z-score)", "setting": "[28]", "value": -0.716},
      {"measurement": "glycan array binding signal (z-score)", "setting": "[29]", "value": 0.359},
      {"measurement": "glycan array binding signal (z-score)", "setting": "[30]", "value": -0.026}
    ]}
  ]
}
